Measurements published in publication PMC9123298.
Results are given in words; binding and its absence hold for the method and conditions named. In cells and extracts the contact can be indirect. Binding can be weak; no strength is given.

Amino acid sequences for entries named in this document (tags omitted). A change or cut given only in a name is not applied to a line headed by its entry.
UniProt A0A3B6A278: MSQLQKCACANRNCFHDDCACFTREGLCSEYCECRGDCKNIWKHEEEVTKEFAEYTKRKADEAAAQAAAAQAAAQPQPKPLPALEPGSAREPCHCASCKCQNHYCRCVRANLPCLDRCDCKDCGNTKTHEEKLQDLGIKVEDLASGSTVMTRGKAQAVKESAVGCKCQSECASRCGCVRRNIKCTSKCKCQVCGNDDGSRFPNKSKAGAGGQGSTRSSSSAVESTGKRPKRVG

Target: TaCPP11-3B fused to the C-terminal part of luciferase (LCI construct) (Triticum aestivum L. (wheat))
Experiment: split reporter; firefly luciferase complementation imaging (LCI) in co-infiltrated tobacco leaves; LUC activity read 60 h after co-infiltration

TaCPP5-1D fused to the N-terminal part of luciferase (LCI construct) (from UniProt A0A3B6A278)
binding: binds
